Laboratory results: PubChem BioAssay AID652272 (Drosophila RNAi Screening Center, 2013)
The deposit covers about 21,000 reagents; shown is an unselected part of those that have a named target and a result. Of all reagents, 503 (2.4%) got an active call. 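Raw plate light values, not normalised; calls rest on replicate z-scores that were not deposited; hits include reporter decreases as well as increases.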 Reagents against one gene are numbered here. Not given: the amount of reagent, the time to read-out.

- Aim: 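Genes whose knock-down decreases or increases Hedgehog reporter output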 (primary screen)
- Cells: Drosophila clone 8 (Cl8) cells
- Reagent: long dsRNA against Drosophila genes
- Read-out: 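Firefly light from a Hedgehog-responsive ptc promoter reporter and Renilla reference light, both read on a plate reader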
- Direction: firefly Hh reporter signal: higher = more ptc reporter light; Renilla reference signal: higher = more Renilla control light
- Rule for the call: 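Hit when the z-score averaged over two replicates is under -2 or over +3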
- Meaning of the calls: active = hit: reporter lowered or raised; inactive = not a hit

spz5: firefly Hh reporter signal, replicate 1 = 1.44e5; firefly Hh reporter signal, replicate 2 = 86551; Renilla reference signal, replicate 1 = 6004; Renilla reference signal, replicate 2 = 3724; Call = inactive
nac: firefly Hh reporter signal, replicate 1 = 75348; firefly Hh reporter signal, replicate 2 = 1.16e5; Renilla reference signal, replicate 1 = 2640; Renilla reference signal, replicate 2 = 3195; Call = inactive
AIMP2: firefly Hh reporter signal, replicate 1 = 82695; firefly Hh reporter signal, replicate 2 = 45946; Renilla reference signal, replicate 1 = 3843; Renilla reference signal, replicate 2 = 1809; Call = inactive
CG14022: firefly Hh reporter signal, replicate 1 = 1.12e5; firefly Hh reporter signal, replicate 2 = 54504; Renilla reference signal, replicate 1 = 3159; Renilla reference signal, replicate 2 = 5180; Call = inactive
Echs1: firefly Hh reporter signal, replicate 1 = 79277; firefly Hh reporter signal, replicate 2 = 70241; Renilla reference signal, replicate 1 = 1568; Renilla reference signal, replicate 2 = 5721; Call = inactive
Marc: firefly Hh reporter signal, replicate 1 = 1.00e5; firefly Hh reporter signal, replicate 2 = 43952; Renilla reference signal, replicate 1 = 1739; Renilla reference signal, replicate 2 = 2487; Call = inactive
PI31: firefly Hh reporter signal, replicate 1 = 73456; firefly Hh reporter signal, replicate 2 = 68593; Renilla reference signal, replicate 1 = 3181; Renilla reference signal, replicate 2 = 2743; Call = inactive
CAH7: firefly Hh reporter signal, replicate 1 = 55832; firefly Hh reporter signal, replicate 2 = 80861; Renilla reference signal, replicate 1 = 2107; Renilla reference signal, replicate 2 = 2112; Call = inactive
CG4712: firefly Hh reporter signal, replicate 1 = 1.47e5; firefly Hh reporter signal, replicate 2 = 60388; Renilla reference signal, replicate 1 = 3745; Renilla reference signal, replicate 2 = 4845; Call = inactive
DIP-theta #1: firefly Hh reporter signal, replicate 1 = 5.94e5; firefly Hh reporter signal, replicate 2 = 6.73e5; firefly Hh reporter signal, replicate 3 = 2.04e5; Renilla reference signal, replicate 1 = 31749; Renilla reference signal, replicate 2 = 3860; Call = inactive
DIP-theta #2: firefly Hh reporter signal, replicate 1 = 85334; firefly Hh reporter signal, replicate 2 = 48555; Renilla reference signal, replicate 1 = 2064; Renilla reference signal, replicate 2 = 5165; Call = inactive
DIP-theta #3: firefly Hh reporter signal, replicate 1 = 66700; firefly Hh reporter signal, replicate 2 = 47204; Renilla reference signal, replicate 1 = 1894; Renilla reference signal, replicate 2 = 5736; Call = inactive
CG16787: firefly Hh reporter signal, replicate 1 = 1.11e5; firefly Hh reporter signal, replicate 2 = 70309; Renilla reference signal, replicate 1 = 3141; Renilla reference signal, replicate 2 = 6064; Call = inactive
magu: firefly Hh reporter signal, replicate 1 = 69720; firefly Hh reporter signal, replicate 2 = 44544; Renilla reference signal, replicate 1 = 2710; Renilla reference signal, replicate 2 = 1888; Call = inactive
Prp39: firefly Hh reporter signal, replicate 1 = 83702; firefly Hh reporter signal, replicate 2 = 74780; Renilla reference signal, replicate 1 = 1523; Renilla reference signal, replicate 2 = 2392; Call = inactive
CG15602: firefly Hh reporter signal, replicate 1 = 59625; firefly Hh reporter signal, replicate 2 = 1.22e5; Renilla reference signal, replicate 1 = 2005; Renilla reference signal, replicate 2 = 5805; Call = inactive
CG9147: firefly Hh reporter signal, replicate 1 = 95010; firefly Hh reporter signal, replicate 2 = 55232; Renilla reference signal, replicate 1 = 2653; Renilla reference signal, replicate 2 = 5185; Call = inactive
CG15708: firefly Hh reporter signal, replicate 1 = 68770; firefly Hh reporter signal, replicate 2 = 32092; Renilla reference signal, replicate 1 = 2018; Renilla reference signal, replicate 2 = 2903; Call = inactive
Polr2G: firefly Hh reporter signal, replicate 1 = 1.31e5; firefly Hh reporter signal, replicate 2 = 87488; Renilla reference signal, replicate 1 = 4193; Renilla reference signal, replicate 2 = 2880; Call = inactive
Ir7a: firefly Hh reporter signal, replicate 1 = 60272; firefly Hh reporter signal, replicate 2 = 2.23e5; Renilla reference signal, replicate 1 = 2330; Renilla reference signal, replicate 2 = 8246; Call = inactive
ninaG: firefly Hh reporter signal, replicate 1 = 81224; firefly Hh reporter signal, replicate 2 = 91943; Renilla reference signal, replicate 1 = 2800; Renilla reference signal, replicate 2 = 2560; Call = inactive

Part of the list above, reformatted.
Target gene,dsRNA no.,"firefly Hh reporter signal, replicate 1","firefly Hh reporter signal, replicate 2","firefly Hh reporter signal, replicate 3","Renilla reference signal, replicate 1","Renilla reference signal, replicate 2",Call
CG4712,1,1.47e5,60388,,3745,4845,inactive
DIP-theta,1,5.94e5,6.73e5,2.04e5,31749,3860,inactive
